Measurements reported in PMC3299598.
For at least one entry, the source does not settle the construct or the ends of the probe.

Key:
[1] = tested on: IS2 OrfAB-GFP transposase fusion; test: EMSA; details: 80 nM protein, 2 nM DNA, 20 mM Tris-Cl pH 8.0, 1 mM EDTA, 1.0 ug/mL calf thymus DNA, 30 min at room temperature (20 C), 5% native PAGE at 4 C, recombinant protein, protein details: C-terminal GFP, 6xHis (Ni-NTA purified)
[2] = tested on: IS2 OrfAB-GFP transposase fusion; test: hydroxyl radical footprinting; details: 225.7 nM protein, 20 mM Tris-Cl pH 8.0, 1 mM EDTA, 1.0 ug/mL calf thymus DNA, 30 min at room temperature (20 C), 5% native PAGE at 4 C, recombinant protein, protein details: C-terminal GFP, 6xHis (Ni-NTA purified)
[3] = label: 32P, top 5' end or bottom 3' end (ddA)

“GCTGACTTGACGGGACGGGGATCCTTAAGTGATAACAGATGTCTGGAAATATAGGGGCAAATCCAATCGACCTGCAGGCATATAAGC (double strand) [R87 (IRR 87-mer)]”: binds [1, 3]; binds ([2]; cleavage domain and B element strongly protected, label: 32P, top 5' end or bottom 3' end (ddA)).

“GGTACCCGGGGATCCTTAAGTGATAACAGATGTCTGGAAATATAGGGGCAAATCCA / CTAGACTGGCCCCCTGAATCTCCAGACAACCAATATCACTTAAATAAGTTATAGTCTT / AAGACTATAACTTATTTAAGTGATATTGGTTGTCTGGAGATTCAGGGGGCCAGTCTAGTGGATTTGCCCCTATATTTCCAGACATCTGTTATCACTTAAGGATCCCCGGGTACC [MJpc (precleaved minicircle junction, 114-mer)]”: binds ([1]; very efficient binding, nick at IRR CA-3'OH); binds ([2]; IRL cleavage domain disengaged, nick at IRR CA-3'OH).

“GGTACCCGGCCATGGTTAAGTGATAACAGATGTCTGGGAAATATAGGGGCAAATCCACTAGACTGGCCCCCTGAATCTCCAGACAACCAATATCACTTAAATAAGTTATAGTCTT / AAGACTATAACTTATTTAAGTGATATTGGTTGTCTGGAGATTCAGGGGGCCAGTCTAGTGGATTTGCCCCTATATTTCCAGACATCTGTTATCACTTAAGGATCCCCGGGTACC [MJcj (covalently joined minicircle junction, 114-mer)]”: binds ([1]; very efficient binding, label: 32P-ddA at bottom 3' end for footprinting); binds ([2]; both cleavage domains protected, label: 32P-ddA at bottom 3' end for footprinting).

“ACGCGGAGTGAATTCGAGCTCTAGACTGGCCCCCTGAATCTCCAGACAACCAATATCACTTAAATAAGTGATAGTCTTA / TAAGACTATCACTTATTTAAGTGATATTGGTTGTCTGAAGATTCAGGGGGCCAGTCTAGAGCTCGAATTCCACTCCGCGT [L79 (IRL 79-mer)]”: binds [1, 3]; binds ([2]; cleavage domain only at 2, 5, 7, 39-48 strongly protected, label: 32P, top 5' end or bottom 3' end (ddA)).
